Measured values taken from patent US20240417469A1.
Results are given in words; binding and its absence hold for the method and conditions named. Some results given as binding are weak or reduced against the parent protein; the word gives no strength.

Sequences of proteins named here, by UniProt entry; tags and fusion partners are left off. A change or cut given only in a name is not applied to a line headed by its entry.
UniProt P07766: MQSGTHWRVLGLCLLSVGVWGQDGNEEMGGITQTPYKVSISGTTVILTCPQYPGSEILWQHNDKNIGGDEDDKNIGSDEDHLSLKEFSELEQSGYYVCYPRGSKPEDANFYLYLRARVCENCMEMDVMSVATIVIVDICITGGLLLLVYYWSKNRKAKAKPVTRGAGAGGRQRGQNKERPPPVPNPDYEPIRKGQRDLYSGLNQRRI
UniProt P04234: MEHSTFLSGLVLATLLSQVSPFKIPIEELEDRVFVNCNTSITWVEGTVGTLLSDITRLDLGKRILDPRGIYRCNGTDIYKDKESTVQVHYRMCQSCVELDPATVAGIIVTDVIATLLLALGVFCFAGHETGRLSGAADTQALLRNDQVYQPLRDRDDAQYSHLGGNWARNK

B1: Hu153A6B1-1 (antibody, V domains shown)
VH: EVQLQESGPGLVKPSETLSLTCTVSGGSISSYNIHWIRQPPGKGLEWIGRIRYNGDTSYNSALKSRVTISVDTSKNQFSLKLSSVTAADTAVYYCARGPYGGSREPLFDYWGQGTMVTVSS
VL: DIQMTQSPSSLSASVGDRVTITCKTSQNINKYLNWYQQKPGKAPKLLIYTTNNLQTGVPSRFSGSGSGTDFTLTISSLQPEDFATYYCLQHGSGYTFGQGTKLEIK
B2: Hu153A6B1-2 (antibody, V domains shown)
VH: EVQLQESGPGLVKPSETLSLTCTVSGGSISSYNIHWVRQPPGKGLEWIGRIRYNGDTSYNSALKSRVTISRDTSKNQFSLKLSSVTAADTAVYYCARGPYGGSREPLFDYWGQGTMVTVSS
VL: DIQMTQSPSSLSASVGDRVTITCKTSQNINKYLNWYQQKPGKAPKLLIYTTNNLQTGVPSRFSGSGSGTDFTLTISSLQPEDFATYYCLQHGSGYTFGQGTKLEIK
B3: Hu153A6B1-3 (antibody, V domains shown)
VH: EVQLQESGPGLVKPSETLSLTCTVSGGSISSYNIHWVRQPPGKGLEWMGRIRYNGDTSYNSALKSRLTISRDTSKNQFSLKLSSVTAADTAVYYCARGPYGGSREPLFDYWGQGTMVTVSS
VL: DIQMTQSPSSLSASVGDRVTITCKTSQNINKYLNWYQQKPGKAPKLLIYTTNNLQTGVPSRFSGSGSGTDFTLTISSLQPEDFATYYCLQHGSGYTFGQGTKLEIK
B4: Hu153A6B1-4 (antibody, V domains shown)
VH: EVQLQESGPGLVKPSETLSLTCTVSGGSISSYNIHWVRQPPGKGLEWMGRIRYNGDTSYNSALKSRLTISRDTSKNQFSLKLSSVTAADTAVYYCTRGPYGGSREPLFDYWGQGTMVTVSS
VL: DIQMTQSPSSLSASVGDRVTITCKTSQNINKYLNWYQQKPGKAPKLLIYTTNNLQTGVPSRFSGSGSGTDFTLTISSLQPEDFATYYCLQHGSGYTFGQGTKLEIK
B5: Hu153A6B1-5 (antibody, V domains shown)
VH: EVQLQESGPGLVKPSETLSLTCTVSGFSISSYNIHWVRQPPGKGLEWMGRIRYNGDTSYNSALKSRLTISRDTSKNQVSLKLSSVTAADTAVYYCTRGPYGGSREPLFDYWGQGTMVTVSS
VL: DIQMTQSPSSLSASVGDRVTITCKTSQNINKYLNWYQQKPGKAPKLLIYTTNNLQTGVPSRFSGSGSGTDFTLTISSLQPEDFATYYCLQHGSGYTFGQGTKLEIK
B6: Hu153A6B1-6 (antibody, V domains shown)
VH: EVQLQESGPGLVKPSETLSLTCTVSGFSLTSYNIHWVRQPPGKGLEWMGRIRYNGDTSYNSALKSRLTISRDTSKNQVSLKLSSVTAADTAVYYCTRGPYGGSREPLFDYWGQGTMVTVSS
VL: DIQMTQSPSSLSASVGDRVTITCKTSQNINKYLNWYQQKPGKAPKLLIYTTNNLQTGVPSRFSGSGSGTDFTLTISSLQPEDFATYYCLQHGSGYTFGQGTKLEIK
B7: Hu153A6B1-7 (antibody, V domains shown)
VH: EVQLQESGPGLVKPSETLSLTCTVSGGSISSYNIHWIRQPPGKGLEWIGRIRYNGDTSYNSALKSRVTISVDTSKNQFSLKLSSVTAADTAVYYCARGPYGGSREPLFDYWGQGTMVTVSS
VL: DIQMTQSPSSLSASVGDRVTITCKTSQNINKYLNWFQQKPGKAPKLLIYTTNNLQTGIPSRFSGSGSGTDFTLTISSLQPEDFATYYCLQHGSGYTFGQGTKLEIK
B8: Hu153A6B1-8 (antibody, V domains shown)
VH: EVQLQESGPGLVKPSETLSLTCTVSGGSISSYNIHWVRQPPGKGLEWIGRIRYNGDTSYNSALKSRVTISRDTSKNQFSLKLSSVTAADTAVYYCARGPYGGSREPLFDYWGQGTMVTVSS
VL: DIQMTQSPSSLSASVGDRVTITCKTSQNINKYLNWFQQKPGKAPKLLIYTTNNLQTGIPSRFSGSGSGTDFTLTISSLQPEDFATYYCLQHGSGYTFGQGTKLEIK
B9: Hu153A6B1-9 (antibody, V domains shown)
VH: EVQLQESGPGLVKPSETLSLTCTVSGGSISSYNIHWVRQPPGKGLEWMGRIRYNGDTSYNSALKSRLTISRDTSKNQFSLKLSSVTAADTAVYYCARGPYGGSREPLFDYWGQGTMVTVSS
VL: DIQMTQSPSSLSASVGDRVTITCKTSQNINKYLNWFQQKPGKAPKLLIYTTNNLQTGIPSRFSGSGSGTDFTLTISSLQPEDFATYYCLQHGSGYTFGQGTKLEIK
B10: Hu153A6B1-10 (antibody, V domains shown)
VH: EVQLQESGPGLVKPSETLSLTCTVSGGSISSYNIHWVRQPPGKGLEWMGRIRYNGDTSYNSALKSRLTISRDTSKNQFSLKLSSVTAADTAVYYCTRGPYGGSREPLFDYWGQGTMVTVSS
VL: DIQMTQSPSSLSASVGDRVTITCKTSQNINKYLNWFQQKPGKAPKLLIYTTNNLQTGIPSRFSGSGSGTDFTLTISSLQPEDFATYYCLQHGSGYTFGQGTKLEIK
B11: Hu153A6B1-11 (antibody, V domains shown)
VH: EVQLQESGPGLVKPSETLSLTCTVSGFSISSYNIHWVRQPPGKGLEWMGRIRYNGDTSYNSALKSRLTISRDTSKNQVSLKLSSVTAADTAVYYCTRGPYGGSREPLFDYWGQGTMVTVSS
VL: DIQMTQSPSSLSASVGDRVTITCKTSQNINKYLNWFQQKPGKAPKLLIYTTNNLQTGIPSRFSGSGSGTDFTLTISSLQPEDFATYYCLQHGSGYTFGQGTKLEIK
B12: Hu153A6B1-12 (antibody, V domains shown)
VH: EVQLQESGPGLVKPSETLSLTCTVSGFSLTSYNIHWVRQPPGKGLEWMGRIRYNGDTSYNSALKSRLTISRDTSKNQVSLKLSSVTAADTAVYYCTRGPYGGSREPLFDYWGQGTMVTVSS
VL: DIQMTQSPSSLSASVGDRVTITCKTSQNINKYLNWFQQKPGKAPKLLIYTTNNLQTGIPSRFSGSGSGTDFTLTISSLQPEDFATYYCLQHGSGYTFGQGTKLEIK
B13: Hu153A6B1-13 (antibody, V domains shown)
VH: EVQLQESGPGLVKPSETLSLTCTVSGGSISSYNIHWIRQPPGKGLEWIGRIRYNGDTSYNSALKSRVTISVDTSKNQFSLKLSSVTAADTAVYYCARGPYGGSREPLFDYWGQGTMVTVSS
VL: DIQMTQSPSSLSASVGDRVTITCKTSQNINKYLNWFQQKPGKAPKLLIYTTNNLQTGIPSRFSGSGSGTDFTLTISSLQPEDFATYFCLQHGSGYTFGQGTKLEIK
B14: Hu153A6B1-14 (antibody, V domains shown)
VH: EVQLQESGPGLVKPSETLSLTCTVSGGSISSYNIHWVRQPPGKGLEWIGRIRYNGDTSYNSALKSRVTISRDTSKNQFSLKLSSVTAADTAVYYCARGPYGGSREPLFDYWGQGTMVTVSS
VL: DIQMTQSPSSLSASVGDRVTITCKTSQNINKYLNWFQQKPGKAPKLLIYTTNNLQTGIPSRFSGSGSGTDFTLTISSLQPEDFATYFCLQHGSGYTFGQGTKLEIK
B15: Hu153A6B1-15 (antibody, V domains shown)
VH: EVQLQESGPGLVKPSETLSLTCTVSGGSISSYNIHWVRQPPGKGLEWMGRIRYNGDTSYNSALKSRLTISRDTSKNQFSLKLSSVTAADTAVYYCARGPYGGSREPLFDYWGQGTMVTVSS
VL: DIQMTQSPSSLSASVGDRVTITCKTSQNINKYLNWFQQKPGKAPKLLIYTTNNLQTGIPSRFSGSGSGTDFTLTISSLQPEDFATYFCLQHGSGYTFGQGTKLEIK
B16: Hu153A6B1-16 (antibody, V domains shown)
VH: EVQLQESGPGLVKPSETLSLTCTVSGGSISSYNIHWVRQPPGKGLEWMGRIRYNGDTSYNSALKSRLTISRDTSKNQFSLKLSSVTAADTAVYYCTRGPYGGSREPLFDYWGQGTMVTVSS
VL: DIQMTQSPSSLSASVGDRVTITCKTSQNINKYLNWFQQKPGKAPKLLIYTTNNLQTGIPSRFSGSGSGTDFTLTISSLQPEDFATYFCLQHGSGYTFGQGTKLEIK

Each binder was assayed against human CD3 protein (human) (UniProt P07766+P04234) (assay: ELISA).

binding, binds:
B1
B2
B3
B4
B5
B6
B7
B8
B9
B10
B11
B12
B13
B14
B15
B16
